These are yes or no findings as the source states them, for the method shown. In cells and extracts the contact can be indirect. These calls come from enrichment with a bait or labelling near it, and not all partners need be listed. A no says only that the protein was not detected with the bait.
Target: T1, AKAP11 (human (endogenous in human stem cell-derived neuronal cells and human cortex)), Q9UKA4
T1 chain: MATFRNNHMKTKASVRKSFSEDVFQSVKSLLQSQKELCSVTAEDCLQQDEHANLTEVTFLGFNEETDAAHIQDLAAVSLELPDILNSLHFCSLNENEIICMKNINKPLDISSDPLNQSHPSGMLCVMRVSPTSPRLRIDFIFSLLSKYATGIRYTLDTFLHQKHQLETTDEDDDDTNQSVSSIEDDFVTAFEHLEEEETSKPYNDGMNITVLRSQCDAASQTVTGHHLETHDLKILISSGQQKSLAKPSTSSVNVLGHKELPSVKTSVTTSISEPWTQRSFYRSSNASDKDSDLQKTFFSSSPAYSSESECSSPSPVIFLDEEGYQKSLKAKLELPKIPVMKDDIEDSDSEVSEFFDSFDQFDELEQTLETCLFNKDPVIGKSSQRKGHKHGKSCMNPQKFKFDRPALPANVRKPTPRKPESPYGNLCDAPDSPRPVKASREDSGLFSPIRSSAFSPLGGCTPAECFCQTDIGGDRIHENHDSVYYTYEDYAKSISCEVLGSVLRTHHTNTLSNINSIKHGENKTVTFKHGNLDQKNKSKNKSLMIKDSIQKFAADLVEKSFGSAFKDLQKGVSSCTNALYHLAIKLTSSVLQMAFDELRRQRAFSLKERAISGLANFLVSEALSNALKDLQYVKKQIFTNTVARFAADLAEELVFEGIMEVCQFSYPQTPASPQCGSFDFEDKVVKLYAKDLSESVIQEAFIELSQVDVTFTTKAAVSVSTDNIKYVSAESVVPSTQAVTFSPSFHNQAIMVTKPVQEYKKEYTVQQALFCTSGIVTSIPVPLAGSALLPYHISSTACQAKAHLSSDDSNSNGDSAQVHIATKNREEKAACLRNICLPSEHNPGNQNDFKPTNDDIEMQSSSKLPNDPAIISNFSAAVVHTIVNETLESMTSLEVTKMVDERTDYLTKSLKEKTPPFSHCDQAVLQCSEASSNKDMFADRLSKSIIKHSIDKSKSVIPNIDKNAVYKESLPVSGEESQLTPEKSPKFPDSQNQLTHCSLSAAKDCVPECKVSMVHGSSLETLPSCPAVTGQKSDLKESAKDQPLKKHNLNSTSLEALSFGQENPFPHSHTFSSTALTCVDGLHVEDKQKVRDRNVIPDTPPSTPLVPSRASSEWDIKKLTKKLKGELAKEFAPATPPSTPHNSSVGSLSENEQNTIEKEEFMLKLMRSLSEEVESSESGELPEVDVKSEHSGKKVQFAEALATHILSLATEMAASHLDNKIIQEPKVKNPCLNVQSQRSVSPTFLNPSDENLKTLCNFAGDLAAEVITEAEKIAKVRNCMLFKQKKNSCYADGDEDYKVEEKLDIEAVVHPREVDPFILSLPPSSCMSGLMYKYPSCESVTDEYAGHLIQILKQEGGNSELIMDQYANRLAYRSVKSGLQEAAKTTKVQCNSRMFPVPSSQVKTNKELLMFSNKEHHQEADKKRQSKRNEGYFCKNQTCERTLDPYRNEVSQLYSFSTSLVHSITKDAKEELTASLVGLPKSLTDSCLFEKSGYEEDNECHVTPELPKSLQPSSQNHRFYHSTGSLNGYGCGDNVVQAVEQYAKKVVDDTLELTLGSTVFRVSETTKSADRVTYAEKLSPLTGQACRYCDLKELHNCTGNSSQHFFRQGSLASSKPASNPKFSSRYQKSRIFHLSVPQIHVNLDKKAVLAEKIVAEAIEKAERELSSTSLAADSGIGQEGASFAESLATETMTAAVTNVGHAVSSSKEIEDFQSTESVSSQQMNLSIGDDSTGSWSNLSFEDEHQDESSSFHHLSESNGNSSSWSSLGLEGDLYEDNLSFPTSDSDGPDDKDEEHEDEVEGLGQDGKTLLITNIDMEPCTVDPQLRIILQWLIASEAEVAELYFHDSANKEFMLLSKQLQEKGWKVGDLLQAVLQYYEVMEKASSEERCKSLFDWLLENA
Assay: affinity purification with mass spectrometry
Details: remark: other sources report otherwise

B1: GSK3A, P49840 1-483 (enzyme)
chain: MSGGGPSGGGPGGSGRARTSSFAEPGGGGGGGGGGPGGSASGPGGTGGGKASVGAMGGGVGASSSGGGPGGSGGGGSGGPGAGTSFPPPGVKLGRDSGKVTTVVATLGQGPERSQEVAYTDIKVIGNGSFGVVYQARLAETRELVAIKKVLQDKRFKNRELQIMRKLDHCNIVRLRYFFYSSGEKKDELYLNLVLEYVPETVYRVARHFTKAKLTIPILYVKVYMYQLFRSLAYIHSQGVCHRDIKPQNLLVDPDTAVLKLCDFGSAKQLVRGEPNVSYICSRYYRAPELIFGATDYTSSIDVWSAGCVLAELLLGQPIFPGDSGVDQLVEIIKVLGTPTREQIREMNPNYTEFKFPQIKAHPWTKVFKSRTPPEAIALCSSLLEYTPSSRLSPLEACAHSFFDELRCLGTQLPNNRPLPPLFNFSAGELSIQPSLNAILIPPHLRSPAGTTTLTPSSQALTETPTSSDWQSTDATPTLTNSS
binding: no binding
